Test results published in PubChem BioAssay AID493014 (National Center for Advancing Translational Sciences (NCATS), 2011).
This is one part of the list. Shown are side measurements of this screen, not its main read-out; they come without a call. The list favours compounds with an active or inconclusive main result. The note in brackets gives the kind of curve behind each potency; many fits are weak.

Assay: qHTS Assay to Find Inhibitors of Chronic Active B-Cell Receptor Signaling
Conditions: ABC-DLBCL IkBa-CBG/CBR reporter, luminescence ratio (green luciferase fused to IkBa over red control in TMD8 lymphoma cells), 4 h
How it was run: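 Concentration-response series (up to 46 uM) were applied to TMD8 dual-reporter cells for 4 h at 37C with doxycycline. Green/red ratio, after filter-overlap correction, defined %Activity; red signal alone was normalised to basal cells and zero luminescence.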

[1] = measured here: IkBa-CBG green luminescence
[2] = measured here: CBR red luminescence, cell number

| SMILES | AC50 [1] | AC50 [2] |
| --- | --- | --- |
| O=c1cc(CN2CCN(S(=O)(=O)/C=C/c3ccccc3)CC2)c2ccc(O)cc2o1 | 23.1 µM [rising, partial curve, poor fit] |  |
| COCC1CCN(Cc2nc(-c3ccc4c(c3)OCO4)no2)C1 (stereo not given) |  | 22.4 µM [rising, single point] |
| O=C(NNC(=S)NC1CCCCC1)c1ccccc1Br |  | 35.5 µM [falling, single point] |
| Cc1cc(C(=O)Nc2ccc(-n3c(C)nc4ccccc4c3=O)cc2)ccc1[N+](=O)[O-] |  | 0.891 µM [falling, partial curve, poor fit] |
| CCC(C)Nc1ncnc2c1cnn2-c1ccc(F)cc1 (stereo not given) |  | 6.31 µM [falling, partial curve] |
| Cn1cc(S(=O)(=O)N2CCNCC2)cc1C(N)=O | 32.6 µM [falling, partial curve, poor fit] | 8.2 µM [rising, partial curve, poor fit] |
| CCOC(=O)c1sc(NC(=O)CSc2nccc(C)n2)nc1C |  | 8.91 µM [falling, partial curve] |
| C(=C\c1ccc2ccccc2n1)/c1ccccc1 |  | 4.47 µM [falling, partial curve] |
| COc1ccc(CN(CC2CCCO2)C(=O)c2cc3sccc3n2C)c(OC)c1 (stereo not given) | 11.2 µM [falling, single point] |  |
| O=C(NNC1OC(CO)C(O)C(O)C1O)c1cccnc1 (stereo not given) |  | 22.4 µM [falling, single point] |
| FC(F)(F)c1cccc(NC(=S)N2CCCC2)c1 |  | 5.01 µM [rising, single point] |
| O=C(COC(=O)c1ccco1)Nc1nnc(-c2ccccc2)o1 |  | 25.9 µM [falling, partial curve] |
| Fc1ccc(C2=CC(c3ccc(F)cc3)n3c(nc4ccccc43)N2)cc1 (stereo not given) |  | 5.62 µM [falling, partial curve] |
| CCOc1ccccc1NC(=O)CSc1nc(=O)n(CCCN2CCOCC2)c2c1CCC2 |  | 5.8 µM [falling, full curve] |
| Cc1ccc(OCC(=O)Nc2ccncc2)c(C)c1 |  | 35.5 µM [rising, single point] |
| Clc1ccccc1Nc1nnc(-c2ccncc2)s1 |  | 10.3 µM [falling, partial curve] |
| COc1ccc(CCNCC(O)COc2cccc(Br)c2)cc1OC (stereo not given) |  | 7.94 µM [falling, partial curve, poor fit] |
| Cc1cc(C)nc(NN2C(=O)C=CC2=O)n1 |  | 5.62 µM [rising, full curve] |
| COc1cc(C2C(C#N)=C(N)Oc3cc(N)ccc32)cc(OC)c1OC (stereo not given) | 3.66 µM [falling, partial curve] |  |

Retrieved by structure from the entries so far (two):

| SMILES | AC50 [1] | AC50 [2] |
| --- | --- | --- |
| CCC(C)Nc1ncnc2c1cnn2-c1ccc(F)cc1 (stereo not given) |  | 6.31 µM [falling, partial curve] |
| Clc1ccccc1Nc1nnc(-c2ccncc2)s1 |  | 10.3 µM [falling, partial curve] |
